According to patent US20180135022A1, “METHOD FOR PRODUCING ARTIFICIAL SYNCYTIOTROPHOBLAST AND PROGENITOR CELL THEREOF” (Sumitomo Chemical Company, Limited, priority 2015, published 2018):
At least one compound was matched to its structure with a doubt left.

How the values were obtained:
KhES-1 cells [1] = assay: Syncytin gene mRNA with retinoic acid with or without BMP4, Example 10; format: cell-based, human; settings: day 5, compared with medium without retinoic acid
KhES-1 cells [2] = assay: Syncytin gene mRNA by real-time PCR after differentiation culturing, Example 3; format: cell-based, human; settings: single agent added to Basal differentiation medium B (0.1 μM S26948, 10 μM GW 1929, 0.1 μM CGP 7930, 10 nM SR 11237 or 1 nM retinoic acid), day 5; in comparison with Control
Method: According to the method described in (1) in Example 2, KhES-1 cells were maintenance cultured, and then subjected to the MEF removing operation. […] S26948, GW 1929, CGP 7930 and SR 11237 were dissolved in DMSO so that they were respectively 100 mM, and retinoic acid was dissolved in DMSO so that it was 10 mM, and each DMSO solution was added to Basal differentiation medium B.
On day 5 of the culturing of the culture using the differentiation medium, total RNA was extracted from cells by using RNeasy Micro Kit (QIAGEN). The obtained total RNA was reverse transcribed by using SuperScript III (Invitrogen), and by real-time PCR using the obtained DNA as a template, TaqMan probe (Applied biosystems) and TaqMan Fast advanced master mix (Applied biosystems), the expression amount of Syncytin gene which is a marker gene of syncytiotrophoblast was examined. For the cells obtained in each culturing, the mRNA amount of Syncytin gene and the mRNA amount of GAPDH gene which is a house keeping gene were determined by real-time PCR. […]

CC1=C(/C=C/C(C)=C/C=C/C(C)=C/C(=O)O)C(C)(C)CCC1 [retinoic acid]
relative expression amount of Syncytin gene (KhES-1 cells [1]; 100 ng/ml BMP4, 1 nM retinoic acid): increased
relative expression amount of Syncytin gene (KhES-1 cells [1]; 100 ng/ml BMP4, 1000 nM retinoic acid): decreased
relative expression amount of Syncytin gene (KhES-1 cells [1]; absence of BMP4, 1000 nM retinoic acid): slightly increased
relative expression amount of Syncytin gene (KhES-1 cells [2]): increased
